No constants are given. Whether binding was seen depends on the method and setting. In cells and extracts the contact can be indirect. A yes stands for co-enrichment or nearness to the bait. Other partners may have been found.
Molecular target: purified human platelet αIIbβ3 integrin (human)
Experiment: affinity purification with mass spectrometry; latex beads coated with RGD peptide-activated human platelet β3 integrins, incubated with fractionated heparin-anticoagulated human plasma; 2D electrophoresis, MALDI Q-TOF; only the target purified

B1: human plasma apoA-IV (protein, UniProt P06727 21-396)
chain: EVSADQVATVMWDYFSQLSNNAKEAVEHLQKSELTQQLNALFQDKLGEVNTYAGDLQKKLVPFATELHERLAKDSEKLKEEIGKELEELRARLLPHANEVSQKIGDNLRELQQRLEPYADQLRTQVSTQAEQLRRQLTPYAQRMERVLRENADSLQASLRPHADELKAKIDQNVEELKGRLTPYADEFKVKIDQTVEELRRSLAPYAQDTQEKLNHQLEGLTFQMKKNAEELKARISASAEELRQRLAPLAEDVRGNLRGNTEGLQKSLAELGGHLDQQVEEFRRRVEPYGENFNKALVQQMEQLRQKLGPHAGDVEGHLSFLEKDLRDKVNSFFSTFKEKESQDKTLSLPELEQQQEQQQEQQQEQVQMLAPLES
**Q.** With B1 as the binder, how does the binding read?
**A.** Its binding is “binds”.

Source: publication PMC6127106
